No constants are given. Whether binding was seen depends on the method and setting. In cells and extracts the contact can be indirect. A yes stands for co-enrichment or nearness to the bait. Other partners may have been found. For some of these results: A no says only that the protein was not detected with the bait. For some of these results: Where a sequence is shown, tags or fusion partners need not be part of it.
T1: Myc-MKRN4 (human) (UniProt Q13434)
T1 sequence: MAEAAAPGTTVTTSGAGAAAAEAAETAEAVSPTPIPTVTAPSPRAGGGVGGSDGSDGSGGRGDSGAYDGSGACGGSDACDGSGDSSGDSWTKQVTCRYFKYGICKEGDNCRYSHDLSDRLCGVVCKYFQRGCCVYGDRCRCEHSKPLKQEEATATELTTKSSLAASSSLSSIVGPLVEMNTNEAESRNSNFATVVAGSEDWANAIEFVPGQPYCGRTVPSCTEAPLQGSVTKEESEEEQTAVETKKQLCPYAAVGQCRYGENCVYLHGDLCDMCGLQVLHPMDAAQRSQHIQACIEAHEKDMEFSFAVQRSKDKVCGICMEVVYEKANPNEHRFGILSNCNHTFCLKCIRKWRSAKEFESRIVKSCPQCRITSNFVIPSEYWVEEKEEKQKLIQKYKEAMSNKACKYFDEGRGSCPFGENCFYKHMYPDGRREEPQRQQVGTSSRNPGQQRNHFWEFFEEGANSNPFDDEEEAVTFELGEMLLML

Chains of the proteins cited; added tags and fusions are not shown. Lines headed by an entry give the natural chain unless they say otherwise; changes in a name come on top.
UniProt Q8IVH8: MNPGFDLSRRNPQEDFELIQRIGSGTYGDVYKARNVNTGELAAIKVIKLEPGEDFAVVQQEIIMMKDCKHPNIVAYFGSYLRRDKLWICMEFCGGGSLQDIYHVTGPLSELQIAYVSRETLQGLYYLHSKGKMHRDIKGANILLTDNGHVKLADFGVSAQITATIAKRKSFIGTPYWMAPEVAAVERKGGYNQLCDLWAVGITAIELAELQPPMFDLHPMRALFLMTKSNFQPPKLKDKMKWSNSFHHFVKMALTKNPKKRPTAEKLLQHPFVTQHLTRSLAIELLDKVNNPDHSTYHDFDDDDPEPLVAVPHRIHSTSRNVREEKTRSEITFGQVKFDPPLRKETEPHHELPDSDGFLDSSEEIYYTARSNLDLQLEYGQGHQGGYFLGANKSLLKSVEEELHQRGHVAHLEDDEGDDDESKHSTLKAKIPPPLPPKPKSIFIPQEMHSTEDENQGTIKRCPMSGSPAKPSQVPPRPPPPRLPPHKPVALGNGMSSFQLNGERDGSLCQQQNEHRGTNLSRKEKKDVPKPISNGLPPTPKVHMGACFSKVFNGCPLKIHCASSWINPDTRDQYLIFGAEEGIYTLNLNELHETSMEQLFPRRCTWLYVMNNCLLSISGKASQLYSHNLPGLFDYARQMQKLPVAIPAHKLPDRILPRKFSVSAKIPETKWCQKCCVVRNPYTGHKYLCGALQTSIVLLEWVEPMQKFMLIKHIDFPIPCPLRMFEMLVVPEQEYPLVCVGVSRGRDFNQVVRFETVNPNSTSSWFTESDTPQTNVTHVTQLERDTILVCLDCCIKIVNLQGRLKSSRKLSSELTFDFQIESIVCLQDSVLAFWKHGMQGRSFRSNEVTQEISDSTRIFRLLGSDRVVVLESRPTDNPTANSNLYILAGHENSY

B1: Makorin ring-finger protein 4 (MKRN4), endogenous (enzyme, UniProt Q13434 1-485)
chain: T1 sequence

How the values were obtained:
Myc-MKRN4 (human) = biological target: T1, Myc-MKRN4 (human); experiment: affinity purification with mass spectrometry; MKRN4 immunocomplex; GLK peptides (with Ub-Lys650) detected by mass spectrometry; cells and tags not told
[1] = biological target: Flag-GLK (A410T) mutant (human) (UniProt Q8IVH8); experiment: affinity purification with mass spectrometry; Flag-tagged GLK immunocomplex isolated from transfected Jurkat T cells; endogenous MKRN4 peptides detected by mass spectrometry
[2] = biological target: Flag-GLK (K650R) mutant (human) (UniProt Q8IVH8); experiment: as above
[3] = biological target: Flag-GLK wild-type (MAP4K3) (human) (UniProt Q8IVH8); experiment: as above

Molecule	binding (Myc-MKRN4 (human))	binding [1]	binding [2]	binding [3]
Flag-GLK (MAP4K3), in HEK293T cells (from UniProt Q8IVH8 1-894) (enzyme)	binds	–	–	–
B1	–	no binding	binds	binds
